# Measured values taken from the supplement of paper PMC5770031.
# Where “and” joins values, the source holds several entries; their conditions need not be identical. Equal values may be shown once. Some of the results follow. Repeats in this data set agree poorly, so a single value says little.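 Flies heterozygous for the ATM8 allele over a balancer chromosome carrying normal ATM were mated with each other on treated food. Parents laid eggs for 5–6 days and the young then developed for about 12 days, so both parents and larvae ate the compound. The read-out is the share of all emerged adults that carry two ATM8 copies, compared with 2% DMSO control vials. The paper called compounds neutral at 10–20% such offspring, harmful below 10%, and helpful above 20%.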 Peptide text beside a SMILES is read from it.
# Tested on: Drosophila melanogaster ATM8 (temperature-sensitive ATM allele)
# Assay: fraction of eclosed F1 progeny that are homozygous ATM8 (rescue of developmental lethality); higher = more rescue of ATM8 developmental lethality; extreme values may be limits of the assay
# Conditions: compound concentration applied to food 0.2 mM; 21 °C
row,SMILES,fraction of eclosed F1 progeny that are homozygous ATM8
1,Cc1ncc([N+](=O)[O-])n1CC(O)CCl (configuration not stated),0.254
2,COc1cc(OC)c2c(OC)c(-c3ccc4c(c3)OCO4)c(=O)oc2c1,0.32
3,CN1C(C(=O)Nc2ccccn2)=C(O)c2sccc2S1(=O)=O,0.108
4,N#Cc1ccc2[nH]cc(CCCCN3CCN(c4ccc5oc(C(N)=O)cc5c4)CC3)c2c1,0.333
5,N=C(N)N,0.0926 and 0.08
6,C[C@]12CC[C@H]3C(=CCc4cc(O)ccc43)[C@@H]1CCC2=O,0.0385
7,C[C@]12C=CC(=O)C=C1CC[C@@H]1[C@@H]2[C@@H](O)C[C@@]2(C)[C@H]1CC[C@]2(O)C(=O)COP(=O)(O)O,0.304
8,CN1[C@@H](CC(=O)c2ccccc2)CCC[C@H]1C[C@H](O)c1ccccc1,0.143
9,c1ccc2[nH]c(-c3cscn3)nc2c1,0.0698
10,CC1(C)[C@H]2CC[C@]1(CS(=O)(=O)O)C(=O)C2=Cc1ccc(C=C2C(=O)[C@@]3(CS(=O)(=O)O)CC[C@@H]2C3(C)C)cc1,0.0526
11,NC(=O)NC(=O)Cc1ccccc1,0.366
12,COc1ccc(C(=O)c2ccc(C)cc2)c(O)c1,0.222
13,"COC(=O)C[C@H]1C(C)(C)[C@@H](O)[C@@H]2CC3=C4CC(O)O[C@@H](c5ccoc5)[C@]4(C)CCC3[C@@]1(C)C2=O (stereo partly drawn) [3,16-DIDEOXYMEXICANOLIDE-3beta-DIOL]",0.0513
14,CC(C)CC(NC(=O)CN)C(=O)NC(Cc1ccccc1)C(=O)O (stereo not drawn) (H-Gly-Leu-Phe-OH; configuration not given here),0.0652
15,C/C=N/N(C)C=O,0.0667
16,Cn1c(=O)cc(N2CCC[C@@H](N)C2)n(Cc2ccccc2C#N)c1=O,0.0652
17,O=c1c2cc(O)c(O)cc2oc2cc(O)c([C@@H]3O[C@H](CO)[C@@H](O)[C@H](O)[C@H]3O)c(O)c12,0.149
18,C=C1C[C@]23C[C@@]1(O)CC[C@H]2[C@@]12C=C[C@H](O)[C@@](C)(C(=O)O1)[C@H]2[C@@H]3C(=O)O,0.0962
19,Cc1cccc(CN2CCN(C(c3ccccc3)c3ccc(Cl)cc3)CC2)c1 (configuration not stated),0.243
20,O=C([O-])[C@H](O)[C@@H](O)[C@H](O)[C@H](O)CO.[Na+],0.0435
21,CCOc1ccc(S(=O)(=O)O)c2cccnc12,0.093
22,O=C(O)CCC(=O)Nc1ccc(S(=O)(=O)Nc2nccs2)cc1,0.12
23,COc1cnc(NS(=O)(=O)c2ccc(N)cc2)nc1,0.205
24,O=NN(CCCl)C(=O)NC1CCCCC1,0
25,COc1ccccc1O,0.22
26,CCOC(=O)C1=C[C@]2(CC)CCCN3CCc4c(n1c1ccccc41)[C@@H]32,0.116
27,CC(=O)OCC(=O)[C@@]1(O)CC[C@H]2[C@@H]3C[C@H](C)C4=CC(=O)C=C[C@]4(C)[C@H]3[C@@H](O)C[C@@]21C [6alpha-METHYLPREDNISOLONE ACETATE],0.0488

# In the list so far, these have an NH in an aromatic ring:
row,SMILES,fraction of eclosed F1 progeny that are homozygous ATM8
4,N#Cc1ccc2[nH]cc(CCCCN3CCN(c4ccc5oc(C(N)=O)cc5c4)CC3)c2c1,0.333
9,c1ccc2[nH]c(-c3cscn3)nc2c1,0.0698
